Reference: EP4036575A1
Results are given in words; binding and its absence hold for the method and conditions named. Some results given as binding are weak or reduced against the parent protein; the word gives no strength.

Sequences of proteins named here, by UniProt entry; tags and fusion partners are left off. Residues count along the entry.
UniProt P10415, residues 1-211: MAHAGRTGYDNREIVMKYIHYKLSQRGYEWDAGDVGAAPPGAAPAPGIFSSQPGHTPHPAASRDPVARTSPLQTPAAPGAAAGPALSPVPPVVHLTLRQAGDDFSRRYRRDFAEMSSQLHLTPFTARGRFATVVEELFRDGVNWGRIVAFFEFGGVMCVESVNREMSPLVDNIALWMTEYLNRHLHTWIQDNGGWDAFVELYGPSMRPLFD

Target: recombinant human B-cell lymphoma protein 2 alpha His-Tag (Bcl-2) (human) (UniProt P10415)
Assay: fluorescence of the His-Bcl-2-sensor 5 complex (200 nM) after addition of Bax BH3

- binding: binds
B1: Bax BH3 peptide (55-74) wild type (peptide, UniProt Q07812 55-74, looked up)
peptide: STKKLSECLKRIGDELDSNM
